Test results: the supplement of paper PMC7661543
± gives the standard deviation of the averaged measurements. The effect of the compound repeats well; differences between the knockouts mostly do not.

System: ZR-75-1
Assay: relative cell number vs DMSO control (72 h) (% of DMSO); higher = less growth inhibition (more cells)
Method: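 QMAP-Seq: a pool of 5 breast cancer cell lines (ZR-75-1, SKBR3, HCC-38, MDA-MB-231, BT-20), each carrying 12 doxycycline-inducible Cas9 sgRNA perturbations (11 knockouts plus non-targeting sgNT), was treated with compounds for 72 h at four 10-fold doses (10 nM-10 uM or 1 nM-1 uM range). Barcodes were amplified and sequenced, and cell number was interpolated from 293T spike-in standard curves. The result is expressed as % of the median of DMSO wells. Two biological replicates.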

[1] = sgRNA knockout: sgATF3, 1000 nM
[2] = sgRNA knockout: sgATF3, 10000 nM
[3] = sgRNA knockout: sgATF4, 1000 nM
[4] = sgRNA knockout: sgATF4, 10000 nM
[5] = sgRNA knockout: sgATF6, 1000 nM
[6] = sgRNA knockout: sgATF6, 10000 nM
[7] = sgRNA knockout: sgATG7, 1000 nM
[8] = sgRNA knockout: sgATG7, 10000 nM
[9] = sgRNA knockout: sgERN1, 1000 nM
[10] = sgRNA knockout: sgERN1, 10000 nM
[11] = sgRNA knockout: sgHSF2, 1000 nM
[12] = sgRNA knockout: sgHSF2, 10000 nM
[13] = sgRNA knockout: sgNFE2L2, 10 nM
[14] = sgRNA knockout: sgNFE2L2, 100 nM
[15] = sgRNA knockout: sgNFE2L2, 1000 nM
[16] = sgRNA knockout: sgNFE2L2, 10000 nM
[17] = sgRNA knockout: sgSLC35F2, 10 nM
[18] = sgRNA knockout: sgSLC35F2, 100 nM
[19] = sgRNA knockout: sgSLC35F2, 1000 nM
[20] = sgRNA knockout: sgSLC35F2, 10000 nM
[21] = sgRNA knockout: sgXBP1, 1000 nM
[22] = sgRNA knockout: sgXBP1, 10000 nM
[23] = sgRNA knockout: sgSLC35F2, 1 nM

Row | SMILES | relative cell number (sgRNA knockout: sgATF3, 10 nM) | relative cell number (sgRNA knockout: sgATF3, 100 nM) | relative cell number [1] | relative cell number (sgRNA knockout: sgATF4, 10 nM) | relative cell number (sgRNA knockout: sgATF4, 100 nM) | relative cell number [3] | relative cell number (sgRNA knockout: sgATF6, 10 nM) | relative cell number (sgRNA knockout: sgATF6, 100 nM) | relative cell number [5] | relative cell number (sgRNA knockout: sgATG7, 10 nM) | relative cell number (sgRNA knockout: sgATG7, 100 nM) | relative cell number [7] | relative cell number (sgRNA knockout: sgERN1, 10 nM) | relative cell number (sgRNA knockout: sgERN1, 100 nM) | relative cell number [9] | relative cell number (sgRNA knockout: sgHSF2, 10 nM) | relative cell number (sgRNA knockout: sgHSF2, 100 nM) | relative cell number [11] | relative cell number [13] | relative cell number [14] | other results
1 | C=C1C[C@@H]2[C@H](CC[C@]3(C)C(=O)CC[C@@H]23)[C@@]2(C)C=CC(=O)C=C12 [Exemestane] | 111 ± 20 | 103 ± 52 | 130 ± 11 | 135 ± 8.5 | 97.9 ± 20 | 96.5 ± 13 | 136 ± 18 | 100 ± 7.5 | 105 ± 63 | 80.7 ± 11 | 92.1 ± 13 | 64.1 ± 8.5 | 103 ± 16 | 91.2 ± 20 | 87.9 ± 23 | 94.4 ± 16 | 89.5 ± 33 | 105 ± 7.5 | 107 ± 43 | 85.4 ± 1.7 | relative cell number [2]: 100 ± 7; relative cell number [4]: 73.3 ± 12; relative cell number [6]: 66.4 ± 25; relative cell number [8]: 113 ± 14; relative cell number [10]: 96.4 ± 15; relative cell number [12]: 104 ± 6.7; relative cell number [15]: 133 ± 8.1; relative cell number [16]: 104 ± 6.7; relative cell number [17]: 97.6 ± 10; relative cell number [18]: 95.6 ± 39; relative cell number [19]: 102 ± 6.9; relative cell number [20]: 85.2 ± 62; relative cell number (sgRNA knockout: sgXBP1, 10 nM): 97.5 ± 19; relative cell number (sgRNA knockout: sgXBP1, 100 nM): 76.9 ± 18; relative cell number [21]: 101 ± 16; relative cell number [22]: 101 ± 2.2
2 | CC(C)(C)OC(=O)CN(Cc1ccc(Cl)cc1)Cc1ccc([N+](=O)[O-])s1 [GSK4112] | 80.6 ± 18 | 118 ± 9.5 | 112 ± 35 | 89.4 ± 26 | 128 ± 3.4 | 126 ± 14 | 79.2 ± 5 | 128 ± 24 | 90.1 ± 14 | 97.7 ± 7 | 127 ± 24 | 96.2 ± 9.5 | 82.7 ± 5.6 | 92 ± 40 | 90.7 ± 7.2 | 94.2 ± 4.4 | 98.15 ± 0.21 | 95.5 ± 19 | 105 ± 22 | 111 ± 14 | relative cell number [2]: 99.1 ± 6.4; relative cell number [4]: 102 ± 11; relative cell number [6]: 100 ± 42; relative cell number [8]: 101 ± 4.7; relative cell number [10]: 80.3 ± 21; relative cell number [12]: 102 ± 21; relative cell number [15]: 94.5 ± 18; relative cell number [16]: 93.7 ± 42; relative cell number [17]: 95.9 ± 29; relative cell number [18]: 148 ± 53; relative cell number [19]: 90.576 ± 0.082; relative cell number [20]: 68.3 ± 42; relative cell number (sgRNA knockout: sgXBP1, 10 nM): 93.1 ± 6.7; relative cell number (sgRNA knockout: sgXBP1, 100 nM): 94.15 ± 0.89; relative cell number [21]: 94.7 ± 2.2; relative cell number [22]: 106 ± 42
3 | CC(C)c1cc(-c2n[nH]c(=O)n2-c2ccc3c(ccn3C)c2)c(O)cc1O [Ganetespib] | 79.812 ± 0.03 | 22.1 ± 8.8 | 18.3 ± 4.9 | 107 ± 20 | 24.6 ± 4.4 | 26.9 ± 2.2 | 84.7 ± 46 | 28.9 ± 6.4 | 15.3 ± 12 | 114 ± 27 | 29 ± 12 | 20.6 ± 3.6 | 98.5 ± 17 | 28.9 ± 4.7 | 21.8 ± 11 | 87.5 ± 18 | 23.1 ± 5.9 | 21.8 ± 2.1 | 59.8 ± 12 | 21.9 ± 4.5 | relative cell number (sgRNA knockout: sgATF3, 1 nM): 105 ± 28; relative cell number (sgRNA knockout: sgATF4, 1 nM): 124 ± 6.5; relative cell number (sgRNA knockout: sgATF6, 1 nM): 106 ± 41; relative cell number (sgRNA knockout: sgATG7, 1 nM): 72.6 ± 30; relative cell number (sgRNA knockout: sgERN1, 1 nM): 89.9 ± 15; relative cell number (sgRNA knockout: sgHSF2, 1 nM): 101 ± 15; relative cell number (sgRNA knockout: sgNFE2L2, 1 nM): 90.9 ± 4.2; relative cell number [15]: 14.7 ± 0.83; relative cell number [23]: 100 ± 19; relative cell number [17]: 96.57 ± 0.29; relative cell number [18]: 13.9 ± 5.6; relative cell number [19]: 18.4 ± 3; relative cell number (sgRNA knockout: sgXBP1, 1 nM): 88.2 ± 4.6; relative cell number (sgRNA knockout: sgXBP1, 10 nM): 80.8 ± 23; relative cell number (sgRNA knockout: sgXBP1, 100 nM): 22.2 ± 2.5; relative cell number [21]: 21.3 ± 6.1
4 | O=C(Cc1ccc(-c2ccc(OCCN3CCOCC3)cc2)cn1)NCc1ccccc1 [KX2391] | 162 ± 22 | 42.9 ± 13 | 20.8 ± 7 | 147 ± 75 | 38 ± 5.9 | 20.2 ± 0.84 | 131 ± 89 | 25.8 ± 11 | 13.9 ± 5.9 | 159 ± 68 | 30.9 ± 5.8 | 18.4 ± 4.2 | 150 ± 54 | 50 ± 16 | 18.9 ± 0.63 | 139 ± 31 | 38.1 ± 6.2 | 26.4 ± 3.5 | 138 ± 58 | 39.1 ± 14 | relative cell number [2]: 27.8 ± 1.3; relative cell number [4]: 27.6 ± 4.5; relative cell number [6]: 14.5 ± 14; relative cell number [8]: 12.8 ± 0.2; relative cell number [10]: 24.6 ± 13; relative cell number [12]: 20.6 ± 2.2; relative cell number [15]: 25.1 ± 9.7; relative cell number [16]: 21.8 ± 2; relative cell number [17]: 45.2 ± 0.95; relative cell number [18]: 21.3 ± 0.77; relative cell number [19]: 20.7 ± 4.7; relative cell number [20]: 23.5 ± 11; relative cell number (sgRNA knockout: sgXBP1, 10 nM): 140 ± 46; relative cell number (sgRNA knockout: sgXBP1, 100 nM): 35.5 ± 2.1; relative cell number [21]: 21.7 ± 3.5; relative cell number [22]: 16.8 ± 1.2
5 | COc1cc(C(=O)N2CCC(N3CCN(C)CC3)CC2)ccc1Nc1ncc2c(n1)N(C)c1ccccc1C(=O)N2C [LRRK2IN1] | 125 ± 13 | 121 ± 10 | 74 ± 16 | 161 ± 16 | 118 ± 9.4 | 75.6 ± 39 | 121 ± 12 | 94.8 ± 21 | 82.6 ± 18 | 106 ± 21 | 99.7 ± 15 | 66.5 ± 1.7 | 117 ± 2.5 | 124 ± 26 | 64.7 ± 12 | 97.4 ± 28 | 93.8 ± 22 | 78.5 ± 11 | 109 ± 26 | 112 ± 9.1 | relative cell number [2]: 25.6 ± 2.7; relative cell number [4]: 23.3 ± 1.1; relative cell number [6]: 15.9 ± 0.32; relative cell number [8]: 32.1 ± 10; relative cell number [10]: 36.5 ± 1.2; relative cell number [12]: 29.8 ± 2.1; relative cell number [15]: 75.2 ± 6.5; relative cell number [16]: 30.7 ± 12; relative cell number [17]: 112 ± 7; relative cell number [18]: 74.4 ± 38; relative cell number [19]: 78.3 ± 24; relative cell number [20]: 16.1 ± 2.5; relative cell number (sgRNA knockout: sgXBP1, 10 nM): 116 ± 10; relative cell number (sgRNA knockout: sgXBP1, 100 nM): 110 ± 14; relative cell number [21]: 80.4 ± 1.8; relative cell number [22]: 34.7 ± 5.3
6 | N#Cc1ccc(C(c2ccc(C#N)cc2)n2cncn2)cc1 [Letrozole] | 86.9 ± 30 | 94.2 ± 38 | 105 ± 5.9 | 69.3 ± 18 | 97.2 ± 10 | 126 ± 24 | 85.17 ± 0.79 | 87.7 ± 9.4 | 120 ± 16 | 98.96 ± 0.89 | 77.5 ± 1.6 | 101 ± 9.2 | 117 ± 63 | 105 ± 25 | 101 ± 14 | 118 ± 15 | 99.6 ± 9.2 | 92.3 ± 11 | 102 ± 15 | 137 ± 12 | relative cell number (sgRNA knockout: sgATF3, 1 nM): 108 ± 22; relative cell number (sgRNA knockout: sgATF4, 1 nM): 108 ± 32; relative cell number (sgRNA knockout: sgATF6, 1 nM): 117 ± 10; relative cell number (sgRNA knockout: sgATG7, 1 nM): 88.9 ± 18; relative cell number (sgRNA knockout: sgERN1, 1 nM): 89 ± 3.2; relative cell number (sgRNA knockout: sgHSF2, 1 nM): 88.91 ± 0.59; relative cell number (sgRNA knockout: sgNFE2L2, 1 nM): 69 ± 3.8; relative cell number [15]: 119 ± 32; relative cell number [23]: 94.1 ± 22; relative cell number [17]: 49.17 ± 0.45; relative cell number [18]: 66.4 ± 11; relative cell number [19]: 81.1 ± 17; relative cell number (sgRNA knockout: sgXBP1, 1 nM): 76.2 ± 6.6; relative cell number (sgRNA knockout: sgXBP1, 10 nM): 113 ± 36; relative cell number (sgRNA knockout: sgXBP1, 100 nM): 101 ± 12; relative cell number [21]: 102 ± 31
